Measured values reported in patent publication US20080248032A1, “COMPOSITIONS AND METHODS FOR PROTECTION AGAINST CARDIAC AND/OR CENTRAL NERVOUS SYSTEM TISSUE INJURY BY INHIBITING SPHINGOSINE-1-PHOSPHATE LYASE” (CHILDREN'S HOSPITAL & RESEARCH CENTER AT OAKLAND, priority 2006, published 2008).
Entries after “also recorded” stand apart in the source; their conditions may differ. At least one structure is not confirmed: it was looked up by name or label, or the drawing left a doubt.

Experiments:
[1] = tested on: S1P levels; experiment: Tissue S1P levels after oral THI; type: in vivo, mice; settings: oral THI for 3 days
[2] = target: T1, SPL (Mus musculus, UniProt Q8R0X7); experiment: Tissue SPL activity after oral THI; type: in vivo, mice; settings: oral THI for 3 days
T1 sequence (Q8R0X7 1-568): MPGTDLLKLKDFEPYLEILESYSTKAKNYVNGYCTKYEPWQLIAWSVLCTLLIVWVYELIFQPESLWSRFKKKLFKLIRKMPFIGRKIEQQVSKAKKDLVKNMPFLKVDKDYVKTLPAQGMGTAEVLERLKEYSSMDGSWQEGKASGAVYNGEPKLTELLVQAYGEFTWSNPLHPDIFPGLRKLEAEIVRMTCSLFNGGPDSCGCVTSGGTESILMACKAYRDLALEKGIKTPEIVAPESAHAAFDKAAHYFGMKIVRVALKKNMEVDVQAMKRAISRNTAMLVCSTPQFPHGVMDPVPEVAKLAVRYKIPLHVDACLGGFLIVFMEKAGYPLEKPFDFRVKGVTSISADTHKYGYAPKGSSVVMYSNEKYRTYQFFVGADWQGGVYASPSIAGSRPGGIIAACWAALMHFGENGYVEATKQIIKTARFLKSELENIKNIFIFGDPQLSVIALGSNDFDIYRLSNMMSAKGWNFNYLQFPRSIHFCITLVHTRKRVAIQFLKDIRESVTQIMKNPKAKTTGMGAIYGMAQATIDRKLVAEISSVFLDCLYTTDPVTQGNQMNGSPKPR

CC(=O)c1nc(C(O)C(O)C(O)CO)c[nH]1 (centres unmarked) [THI, 2-acetyl-4-tetrahydroxybutylimidazole]
S1P levels in most tissues [1]: elevated; also recorded: increases | SPL activity in most tissues/organs [2]: SPL inhibition; also recorded: profound inhibition
